According to patent publication US8933235B2, “Pyridinedione carboxamide inhibitors of endothelial lipase” (Bristol-Myers Squibb Company, priority 2011, dated 2015):
Some of these results come from one statement about several compounds together.

What follows are compounds tested against T1, endothelial lipase (EL) (Homo sapiens, UniProt Q9Y5X9) (assay: Endothelial lipase (EL) enzymatic assay with fluorescent substrate A10070 in DMPG vesicles). Settings: result in words.
T1 construct: Conditioned media obtained from HT-1080 cells, which were transformed by RAGE technology (Athersys) to overexpress endogenous EL; endogenous in cells; conditioned medium used as the enzyme source
T1 sequence (Q9Y5X9 21-500): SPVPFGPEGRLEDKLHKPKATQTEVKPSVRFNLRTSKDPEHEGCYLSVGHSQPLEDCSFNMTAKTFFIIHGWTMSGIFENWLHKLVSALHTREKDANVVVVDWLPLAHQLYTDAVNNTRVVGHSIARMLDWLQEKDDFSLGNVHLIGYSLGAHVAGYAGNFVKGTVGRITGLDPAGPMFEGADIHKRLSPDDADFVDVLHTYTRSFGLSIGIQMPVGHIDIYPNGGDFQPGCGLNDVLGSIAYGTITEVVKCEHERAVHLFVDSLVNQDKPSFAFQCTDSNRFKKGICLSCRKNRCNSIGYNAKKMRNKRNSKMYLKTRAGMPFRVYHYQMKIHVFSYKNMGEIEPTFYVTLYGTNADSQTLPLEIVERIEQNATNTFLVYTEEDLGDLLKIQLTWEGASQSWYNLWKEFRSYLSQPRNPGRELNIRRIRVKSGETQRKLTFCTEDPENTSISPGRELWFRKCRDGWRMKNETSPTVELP
Type: biochemical
For `Cn1ccc(C(=O)NCCCOc2cccc([N+](=O)[O-])c2)c(O)c1=O` [Example 201, 3-hydroxy-1-methyl-N-(3-(3-nitrophenoxy)propyl)-2-oxo-1,2-dihydropyridine-4-carboxamide], the EL inhibitory activity was “found having EL inhibitory activity”.
`CC(C)Cn1ccc(C(=O)N[C@H](C)CCOc2c(Cl)cccc2Cl)c(O)c1=O` [Example 165, (R)-N-(4-(2,6-dichlorophenoxy)butan-2-yl)-3-hydroxy-1-isobutyl-2-oxo-1,2-dihydropyridine-4-carboxamide] was tested, and the EL inhibitory activity was “found having EL inhibitory activity”.
With `Cn1ccc(C(=O)NCCCCc2ccc(Cl)c(Cl)c2)c(O)c1=O` [Example 207, N-(4-(3,4-dichlorophenyl)butyl)-3-hydroxy-1-methyl-2-oxo-1,2-dihydropyridine-4-carboxamide] the EL inhibitory activity was “found having EL inhibitory activity”.
In the case of `COC(=O)c1ccc(-n2ccc(C(=O)NCCCc3ccc(Cl)c(Cl)c3)c(O)c2=O)cc1F` [Example 181, methyl 4-(4-(3-(3,4-dichlorophenyl)propylcarbamoyl)-3-hydroxy-2-oxopyridin-1(2H)-yl)-2-fluorobenzoate], the EL inhibitory activity is reported as “found having EL inhibitory activity”.
In the case of `Cn1c(-c2cc(F)cc(C(F)(F)F)c2)cc(C(=O)NCc2ccc(C(F)(F)F)cc2)c(O)c1=O` [Example 53, 6-(3-fluoro-5-(trifluoromethyl)phenyl)-3-hydroxy-1-methyl-2-oxo-N-(4-(trifluoromethyl)benzyl)-1,2-dihydropyridine-4-carboxamide], the EL inhibitory activity is reported as “found having EL inhibitory activity”.
With `Cn1ccc(C(=O)NCCCS(=O)(=O)c2ccc(Cl)c(Cl)c2)c(O)c1=O` [Example 159, N-(3-(3,4-dichlorophenylsulfonyl)propyl)-3-hydroxy-1-methyl-2-oxo-1,2-dihydropyridine-4-carboxamide] the EL inhibitory activity was “found having EL inhibitory activity”.
